Data taken from publication PMC10377586 (Biomolecules, 2023).
Some compounds share one wording; it may come from a single statement.

Assay: DPPH antioxidant assay
Type: physicochemical
Conditions: 50 µM
Excerpt: The 2,2-diphenyl-1-picrylhydrazyl (DPPH) assay was used to determine the antioxidant properties of selected compounds using ascorbic acid, trolox, and quercetin as references. […] From a structural point of view, 21 and 22 share a common pyrimido[2,1-f]purinedione core with propyl or butyl substituents at the N1- and N3-position. Compounds 11i and 11l, containing hexyl or phenoxyethyl as N7-substituents, were the only structures in the groups of bicyclic xanthine derivatives that lacked antioxidant activity in the DPPH assay.
Antioxidant properties of considered structures were evaluated in DPPH test. The assay utilizes a stable free radical 2,2-diphenyl-1-picrylhydrazyl (DPPH). DPPH has a deep violet color in solution and strong absorption band at 520 nm. The antioxidant activity of the tested compounds was defined by their ability to induce the formation of the reduced form of DPPH. Upon reduction, DPPH color turned pale yellow, which manifested by decreased sample absorption at 520 nm and was measured in conducted experiments using EnSpire microplate reader (PerkinElmer). Antioxidant activity of xanthine derivatives and reference compounds was tested in triplicate at 50 µM concentration and normalized to the activity of reference radical scavenger—quercetin.
Figure 2 Antioxidant properties of xanthine derivatives evaluated in the DPPH test. All compounds were tested at 50 µM concentration. Results were normalized to the antioxidant activity measured for quercetin. ASC, ascorbic acid; TLX, trolox; QCT, quercetin.

| SMILES | antioxidative activity in DPPH assay compared with quercetin |
| --- | --- |
| CCCCn1c(=O)c2c(nc3n2CCCN3CCc2ccc(O)c(O)c2)n(CCCC)c1=O [Compound 22, 1,3-Dibutyl-9-(3,4-dihydroxyphenethyl)-6,7,8,9-tetrahydropyrimido[2,1-f]purine-2,4(1H,3H)-dione] | significantly lower antioxidative activity than quercetin |
| CCCCCCn1c(NCCc2ccc(O)c(O)c2)nc2c1c(=O)n(C)c(=O)n2C [Compound 11i, 8-((3,4-Dihydroxyphenethyl)amino)-7-hexyl-1,3-dimethyl-3,7-dihydro-1H-purine-2,6-dione] | significantly lower antioxidative activity than quercetin |
| Cn1c(=O)c2c(nc(NCCc3ccc(O)c(O)c3)n2CCOc2ccccc2)n(C)c1=O [Compound 11l, 8-((3,4-Dihydroxyphenethyl)amino)-1,3-dimethyl-7-(2-phenoxyethyl)-3,7-dihydro-1H-purine-2,6-dione] | significantly lower antioxidative activity than quercetin |
| CCCn1c(=O)c2c(nc3n2CCCN3CCc2ccc(O)c(O)c2)n(CCC)c1=O [Compound 21, 9-(3,4-Dihydroxyphenethyl)-1,3-dipropyl-6,7,8,9-tetrahydropyrimido[2,1-f]purine-2,4(1H,3H)-dione] | significantly lower antioxidative activity than quercetin |
